# Results as given in PubChem BioAssay AID1487 (National Center for Advancing Translational Sciences (NCATS), 2009).
# Where “and” joins values, the source holds several entries; their conditions need not be identical. Identical values can stand only once. Some of the results follow. Shown are side measurements of this screen, not its main read-out; they come without a call. Compounds called inactive in the main read-out are mostly missing here. Potencies come from curve fits of mixed quality, noted in brackets.
# Test: qHTS Assay for Modulators of Lamin A Splicing
# Conditions: HeLa LMNA splicing GFP/RFP minigene ratio, 48 h
# How it was run: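 Read-out is the ratio of GFP to DsRed2 object intensity, acquired by 488 nm laser-scanning cytometry on HeLa lamin A-EGFP minigene reporter cells. Compound incubation 48 hrs at 37 °C in Opti-MEM with 2% FBS; DMSO 0.5% final.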
# [1] = measured here: GFP splicing reporter channel
# [2] = measured here: RFP viability control channel
SMILES,AC50 [1],AC50 [2]
COc1ccc(-c2nnn(CC(=O)N(CC(=O)NC3CCCC3)c3cccc(C)c3)n2)cc1OC,"35.5 µM [rising, single point]","35.5 µM [rising, single point]"
Cc1nc2cc(N3CCOCC3)c(NC(=O)C3CC3)cc2c(=O)n1Cc1ccccc1,–,"2.24 µM [rising, single point]"
c1ccc2oc(Cc3ccc(Cc4nc5ccccc5o4)cc3)nc2c1,"12.6 µM [rising, single point]","20 µM [rising, single point]"
CCOc1ccc(OCC)c(NC(=O)c2cnn(-c3ccc(F)cc3)c2C2CCN(C(=O)OC(C)(C)C)CC2)c1,"2.82 µM [falling, partial curve]",–
COc1cccc(-c2cncnc2NCc2cccc(C)c2)c1,"22.4 µM [falling, partial curve]","20 µM [falling, partial curve]"
CCCNCc1cc(Br)ccc1OCC(=O)NCCc1ccccc1,"0.0891 µM [rising, full curve, poor fit]","0.0891 µM [rising, full curve]"
CCOc1ccc(NC(=O)Nc2ccc3nsnc3c2)cc1,"1.78 µM [falling, full curve, poor fit]","0.0501 µM [falling, full curve]"
O=C(c1cc2c(s1)CCCC2)N1CCN(S(=O)(=O)c2ccccc2C(F)(F)F)CC1,"35.5 µM [rising, single point]","22.4 µM [rising, single point]"
COc1ccc(-n2cc(CNC(C)c3ccncn3)c(-c3cccc(F)c3)n2)cc1 (stereo not drawn),"0.316 µM [rising, partial curve, poor fit]",–
N=C(N)c1ccc(OCCCCCOc2ccc(C(=N)N)cc2)cc1,"3.16 µM [falling, partial curve] and 6.31 µM [rising, partial curve] and 12.6 µM [rising, single point]","3.16 µM [falling, single point] and 10 µM [rising, partial curve] and 3.98 µM [rising, full curve, poor fit]"
Cc1nn(-c2ccccc2)c(N2CCCC2)c1/C=N/NC(=S)Nc1ccccc1C(F)(F)F,–,"11.2 µM [rising, partial curve]"
Cc1ccc(-n2ncc3c(NC4CCCC4)ncnc32)cc1,"0.141 µM [falling, full curve, poor fit]",–
COc1ccc(-c2nn(-c3ccccc3)cc2C(=O)Nc2nc(CC(C)=O)ns2)cc1,"12.6 µM [rising, single point]",–
Oc1ccc(N=C/C=C/c2cccc(Br)c2)cc1-c1nc2ccccc2s1,"22.4 µM [rising, single point]","20 µM [rising, partial curve]"
FC(F)(F)c1ccc(N2CCOCC2)c(Nc2nc3ccccc3n3cnnc23)c1,"35.5 µM [falling, single point]","25.1 µM [falling, single point]"
CCCn1cc(S(=O)(=O)c2ccccc2)c(=O)c2cc(F)c(N3CCCCCC3)cc21,"0.355 µM [falling, partial curve]",–
CC1CCn2c(nc3cc(C(=O)NCCc4ccccc4)ccc32)C1 (stereo not drawn),"0.316 µM [rising, partial curve, poor fit]","0.2 µM [rising, full curve, poor fit]"
Cc1cc(OC(=O)c2c(Cl)cccc2Cl)nc(C)n1,–,"12.6 µM [rising, partial curve]"
COC(=O)c1ccc(C)c(NC(=O)c2ccc(Cl)c([N+](=O)[O-])c2)c1,–,"11.2 µM [rising, partial curve]"
COc1ccc(NC(=O)Cn2c(SCc3ccc(F)cc3)nc3cccnc32)c(OC)c1,"35.5 µM [falling, partial curve, poor fit]",–
Cc1cccc(Oc2sc(C(=O)c3ccccc3)c(N)c2C#N)c1,"11.2 µM [falling, single point]","35.5 µM [falling, single point]"
CCN(CC)CCN1C(=O)C(=O)/C(=C(/O)c2c(C)[nH]c(C(=O)OC)c2C)C1c1cccnc1 (stereo not drawn),–,"3.16 µM [falling, partial curve]"
CCCN(CCC)C(=O)[C@@H](CCC(=O)O)NC(=O)c1ccccc1,"2 µM [falling, partial curve]","3.16 µM [falling, partial curve]"
O=C(Nc1ccc(Oc2ccc(C(=O)O)c(C(=O)O)c2)cc1)c1cccs1,–,"22.4 µM [falling, partial curve, poor fit]"
CC1=C(CCN2CCN(C3CCCC3)C(CCO)C2)C(C)(C)CCC1 (stereo not drawn),"5.01 µM [falling, full curve, poor fit]","7.08 µM [falling, full curve]"
COc1cccc(-n2c(=O)c3c(C)c(C(=O)N(C)C)sc3n(Cc3cccc(C)c3)c2=O)c1,–,"0.501 µM [falling, full curve, poor fit]"

SMILES,AC50 [1],AC50 [2]
Cc1cccnc1NC(=O)c1ccc([N+](=O)[O-])o1,–,"31.6 µM [rising, single point]"
COc1cc(-c2oc3cc(O)ccc3c(=O)c2O)ccc1O,"25.1 µM [falling, partial curve]","15.8 µM [falling, partial curve]"
O=C(Cc1ccc(Cl)cc1)Nc1ncc([N+](=O)[O-])s1,"35.5 µM [rising, single point]","35.5 µM [rising, single point]"
Cc1ccc(C)c(NC(=O)CSc2nnc(Cc3cccn3C)n2-c2ccc(F)cc2)c1,–,"35.5 µM [rising, single point]"
CC(=O)Nc1ccc(S(=O)(=O)NCc2ccc3[nH]c(C)cc3c2)cc1,–,"20 µM [rising, partial curve, poor fit]"
Cc1cc(C)c2nc(NC(=O)c3ccc4c(=O)n5c(nc4c3)CCCCC5)sc2c1,–,"3.16 µM [rising, single point]"
CCOC(=O)CN(c1ccccc1)S(=O)(=O)c1ccc(F)cc1,–,"1.12 µM [falling, partial curve, poor fit]"
O=C1C2C(c3ccccc3)(C(=O)N1c1ccc(Cl)cc1)C2(c1ccccc1)c1ccccc1 (stereo not drawn),–,"2.82 µM [rising, partial curve]"
Cc1ccc(-n2nc(C)c3c(=O)[nH]c(C(F)(F)F)nc32)cc1,"25.1 µM [rising, partial curve, poor fit]","3.55 µM [rising, partial curve, poor fit]"
CCCCC1=CC2=C(c3ccco3)C(=O)C(C)(OC(=O)c3ccc(OC)cc3)C(=O)C2=CN1CCc1ccccn1 (stereo not drawn),–,"3.55 µM [falling, single point]"
COc1ccc(-c2nc3c4ccccc4n(CC(=O)Nc4ccc(C(C)C)cc4)c(=O)n3n2)cc1,"35.5 µM [rising, single point]",–
Nc1nn(-c2ccccc2)c(N)c1N=Nc1ccccc1,"31.6 µM [rising, single point]","11.2 µM [rising, partial curve]"
CC[N+](CC)(CC#Cc1ccccc1)CC(=O)c1ccc(Cl)cc1,–,"14.1 µM [rising, single point]"
CC/C(=C1/C(=O)CC(C)(C)C(C(=O)OC)C1=O)N1CCCC1 (stereo not drawn),"5.62 µM [rising, single point]",–
CCc1sc(Nc2cccc(C)c2)nc1-c1cc2cccc(OC)c2oc1=O,–,"5.62 µM [falling, partial curve]"
COc1cc(OC)cc(C(=O)NCC(=O)N2CCC(C)CC2)c1,"1.12 µM [rising, full curve]",–
OCCOCCN1CCN(C2=Nc3ccccc3Sc3ccccc32)CC1,"0.794 µM [falling, single point]","35.5 µM [falling, single point]"
Oc1ccc2ccc3[nH]cnc3c2c1,–,"0.178 µM [falling, full curve, poor fit]"
COCC(C)n1c(-c2ccc3c(c2)NC(=O)CO3)csc1=Nc1ccc(OC(F)F)cc1 (stereo not drawn),"5.01 µM [rising, single point]","3.55 µM [rising, single point]"
COc1cc2cc(/C=C/C(=O)c3ccco3)c(Cl)nc2cc1OC,"35.5 µM [falling, single point]","35.5 µM [falling, single point]"
COc1ccc(CNc2nc(-c3cccnc3)nn2C(C)=O)cc1,–,"0.891 µM [falling, full curve, poor fit]"
COc1cccc(CNC(=O)c2cccc(Br)c2)c1,–,"15.8 µM [rising, single point]"
C=CCc1c(C)[nH]c2c(OC)cccc2c1=S,"35.5 µM [falling, single point]",–
O=C1C(NS(=O)(=O)c2cccs2)=C(N2CCN(c3cccc(C(F)(F)F)c3)CC2)C(=O)c2ccccc21,"35.5 µM [rising, single point]","35.5 µM [rising, single point]"
COc1ccccc1C(=O)N1CCN(Cc2cn[nH]c2-c2ccc(F)cc2F)CC1,"10 µM [falling, partial curve, poor fit]",–
COc1ccc(-c2[nH]ncc2CN2CCN(c3ccc(F)cc3)CC2)cc1,–,"0.00447 µM [falling, full curve, poor fit]"
